Results from article PMC7819943, “Rice protein-binding microarrays: a tool to detect cis-acting elements near promoter regions in rice”.
Some of the results follow.

target: T1, OsSMF1 (Oryza sativa, UniProt Q6ZLB0 1-436); assay: protein-binding microarray (RPBM); PBS, 2% BSA, 51.3 ng/ul salmon testes DNA, 50 uM zinc acetate, 200 nM TF, 25 C, 1 h; high values mean tight binding; conditions: protein: recombinant; tags: N-terminal polyhistidine and DsRed monomer fusion (pET32a); chain copies: 2; label: CyDye5-dUTP incorporated in the synthesized complementary strand; 3' TTTTT single-stranded linker to array surface; dsDNA, one strand shown
T1 sequence: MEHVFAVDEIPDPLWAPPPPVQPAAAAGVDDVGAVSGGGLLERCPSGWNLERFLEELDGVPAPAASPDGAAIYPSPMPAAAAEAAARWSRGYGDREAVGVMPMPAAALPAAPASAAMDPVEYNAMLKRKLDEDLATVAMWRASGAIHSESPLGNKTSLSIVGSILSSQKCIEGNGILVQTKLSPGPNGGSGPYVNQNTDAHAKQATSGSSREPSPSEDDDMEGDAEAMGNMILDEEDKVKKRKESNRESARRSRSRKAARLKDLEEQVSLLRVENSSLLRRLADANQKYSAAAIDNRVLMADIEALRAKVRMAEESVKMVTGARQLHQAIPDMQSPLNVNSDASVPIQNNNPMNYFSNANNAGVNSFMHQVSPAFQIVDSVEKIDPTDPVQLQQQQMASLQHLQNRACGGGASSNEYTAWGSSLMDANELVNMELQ
How it was run: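 Binding signal here means per-feature fluorescence intensity in arbitrary units. The values were read on an Axon 4000B scanner after a custom Agilent array, double-stranded by primer extension with Cy5-dUTP, was incubated with 200 nM protein at 25 °C for 1 h in PBS with 2% BSA, salmon testes DNA and 50 µM zinc acetate, then washed. The proteins were transcription factors with an N-terminal polyhistidine tag and DsRed, expressed in E. coli BL21-CodonPlus and purified on Ni–NTA.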

Sequence | binding signal
TGGCGGAGCGAACAGCCAACTCGCCGAGTCTCTCTCCGCGCGGAGTCACCTAGTGCAG | 3170 fluorescence intensity (a.u.)
GTTGGCACGTACGGCGGGCGGCTGACCGGACGAACGCCACCGGAGTCACCTAGTGCAG | 3190 fluorescence intensity (a.u.)
CGGGTGGGGATGGGCTGGATCTGGATTGATTGGGAGTGTTCGGAGTCACCTAGTGCAG | 3910 fluorescence intensity (a.u.)
ATAGGATCGTGTAGAACATGGTATCTGATTCCTGCAATTTCGGAGTCACCTAGTGCAG | 3420 fluorescence intensity (a.u.)
GACCTGATCACCTGAGCCAGTCCACGTACGTACGCCCGACCGGAGTCACCTAGTGCAG | 9460 fluorescence intensity (a.u.)
CGCTTGTTCGCTGGATTTGCGACCAGCTGCCCACGTCCTGCGGAGTCACCTAGTGCAG | 4210 fluorescence intensity (a.u.)
GTGTCTTCGACCACCACGGCGCTACGTCATGACGCCACCACGGAGTCACCTAGTGCAG | 5950 fluorescence intensity (a.u.)
TTTAATATTTTGCTTTTAGTGATCACTGCCACATAGGACGCGGAGTCACCTAGTGCAG | 7890 fluorescence intensity (a.u.)
GAGGGGAAATGGAGAAATGACTCCCCTGCCCCTTCTTCTCCGGAGTCACCTAGTGCAG | 3230 fluorescence intensity (a.u.)
TAGCCTAGAGTCATTCGGTCTACAGTTCTCTAATCATCGGCGGAGTCACCTAGTGCAG | 3420 fluorescence intensity (a.u.)
CAGCGTCAGCGTCGCACCAACAACTCTACTAACACCACCACGGAGTCACCTAGTGCAG | 4180 fluorescence intensity (a.u.)
CTGACCAAACAGAAAACAGTTACAAGAACACATCTTTGAGCGGAGTCACCTAGTGCAG | 3160 fluorescence intensity (a.u.)
GCTAGAAAATAGTGGGGATGGTGTATGCATTGAGTTTGTTCGGAGTCACCTAGTGCAG | 3660 fluorescence intensity (a.u.)
TGCCATTCTGACCCACATGTCATTGACTCATGTGGATCTTCGGAGTCACCTAGTGCAG | 7260 fluorescence intensity (a.u.)
TAAACACAATTCTCCCTAATTATTATTTCTGGATGATGAGCGGAGTCACCTAGTGCAG | 41400 fluorescence intensity (a.u.)
TGGATGACTTCATCGTGCCCGACGCCGACGTCCCGACCAACGGAGTCACCTAGTGCAG | 3800 fluorescence intensity (a.u.)
GGTCCAAGAGCCCAACTGAACCGGAGGAGTCGAGCCGCCGCGGAGTCACCTAGTGCAG | 23100 fluorescence intensity (a.u.)
GTGCACGCTTATGTGCGCGCCTGCCCTAATGTTTCTAGGACGGAGTCACCTAGTGCAG | 3270 fluorescence intensity (a.u.)
TGAAATTTACTCGTTAATCATGCAAAGTCCCACGTACTGTCGGAGTCACCTAGTGCAG | 5590 fluorescence intensity (a.u.)
ATCAGGAACATTATGAAATTTTAACACGTTGTCATTGTCTCGGAGTCACCTAGTGCAG | 3760 fluorescence intensity (a.u.)
AGTCAATTAATCATATGCTAATGACTCACCTCGTTTTGTGCGGAGTCACCTAGTGCAG | 15200 fluorescence intensity (a.u.)

Sequence | binding signal
CGGAGACGGGAGGCGAGGCGAGCGGCGCCGCGGAACGGGACGGAGTCACCTAGTGCAG | 18600 fluorescence intensity (a.u.)
GTGGGCCCCACCCACACGTCAGCACCACCATCCGCTCACCCGGAGTCACCTAGTGCAG | 14400 fluorescence intensity (a.u.)
AAAGCGAGAGACAGCTCATCGCCCATTCGCCCTCGCGCCGCGGAGTCACCTAGTGCAG | 4130 fluorescence intensity (a.u.)
CATTTATAACTTTGCTGTGTTTCACTGATGCAGGTTTTATCGGAGTCACCTAGTGCAG | 3490 fluorescence intensity (a.u.)
TATATTCAATGCTATGTTTAATGAAACTAATTTGGATATTCGGAGTCACCTAGTGCAG | 65100 fluorescence intensity (a.u.)
AAATTAACCATGTATGCTAATATGTTATCGCCCTCCAGATCGGAGTCACCTAGTGCAG | 3390 fluorescence intensity (a.u.)
GTCGGAGAAAGCGCGACGACGTGGTTGAATTGCTCCGGTGCGGAGTCACCTAGTGCAG | 4040 fluorescence intensity (a.u.)
ATACTACTACTACCGTTTAACAGTTTATTACTAACAAAATCGGAGTCACCTAGTGCAG | 4760 fluorescence intensity (a.u.)
GCGCGCCGGGGAGCACAGTCGTCGTCACGACCAGGAGCAGCGGAGTCACCTAGTGCAG | 4150 fluorescence intensity (a.u.)
TGTTTCATCTAGTATAAGGACGTGGCATCGTATTAATTTCCGGAGTCACCTAGTGCAG | 8200 fluorescence intensity (a.u.)
TATCAGCATTCAGCAGATGCTCGTGTGGAAAATTCAGGGTCGGAGTCACCTAGTGCAG | 3310 fluorescence intensity (a.u.)
AACCCAGATATCCAATCCGGCCCTTCTCATCAGTTGTCAGCGGAGTCACCTAGTGCAG | 3380 fluorescence intensity (a.u.)
GCCTCGCCTTCTCGCTCGTTCCCATGGGCGGATCTGCTGACGGAGTCACCTAGTGCAG | 4280 fluorescence intensity (a.u.)
GAGTCGTCGCCGAGGCGGCCGCCCGCGATGACGATGCGACCGGAGTCACCTAGTGCAG | 3750 fluorescence intensity (a.u.)
TGGGGTTCACATTTAAATTGTTGATGACCTGTATTCTCATCGGAGTCACCTAGTGCAG | 3660 fluorescence intensity (a.u.)
CGGGGAGGGCCTACCTACACAAGTAGGAGTAGGCATGTTGCGGAGTCACCTAGTGCAG | 3970 fluorescence intensity (a.u.)
GTGGGTAGCCATGGCGCCGCCCATGTCGTGCTCAGCAATTCGGAGTCACCTAGTGCAG | 3370 fluorescence intensity (a.u.)
CAACTACCAAACTGTCACAACATGACGCAGCAACCAAACCCGGAGTCACCTAGTGCAG | 5080 fluorescence intensity (a.u.)
ACCTAGCTAACTGACTGAGATGTGACATGCTACTAGGAGTCGGAGTCACCTAGTGCAG | 3200 fluorescence intensity (a.u.)
GCTGTGGCGCCCTCGTGTCGCCACGACACCACTCTCACCGCGGAGTCACCTAGTGCAG | 7950 fluorescence intensity (a.u.)
GATTCGAGATTCAGGTAGGTTGTATAGTTCACGGGAGCAACGGAGTCACCTAGTGCAG | 64500 fluorescence intensity (a.u.)

Rewritten field by field: entries from further up
GCCTCGCCTTCTCGCTCGTTCCCATGGGCGGATCTGCTGACGGAGTCACCTAGTGCAG
  binding signal: 4280 fluorescence intensity (a.u.)
GAGTCGTCGCCGAGGCGGCCGCCCGCGATGACGATGCGACCGGAGTCACCTAGTGCAG
  binding signal: 3750 fluorescence intensity (a.u.)
